Literature values, collected in patent US20240398853A1, “MULTIVALENT POLYCATION INHIBITION OF POLYANIONS IN BLOOD” (The Regents of the University of Michigan, priority 2021, published 2024).
Some of these results come from one statement about several compounds together.

Test system: mice
Settings: literature (Smith, 2012); cited from earlier work

Substance: polymyxin B
- final patency: less than 30%
